According to PMC10347873:
Results are given in words; binding and its absence hold for the method and conditions named. Binding seen in cells or lysates may run through a third protein. Some entries that bind do so weakly or less than the wild type.

By UniProt entry, the sequences of proteins in these tests, tags left out.
UniProt Q8VCC8: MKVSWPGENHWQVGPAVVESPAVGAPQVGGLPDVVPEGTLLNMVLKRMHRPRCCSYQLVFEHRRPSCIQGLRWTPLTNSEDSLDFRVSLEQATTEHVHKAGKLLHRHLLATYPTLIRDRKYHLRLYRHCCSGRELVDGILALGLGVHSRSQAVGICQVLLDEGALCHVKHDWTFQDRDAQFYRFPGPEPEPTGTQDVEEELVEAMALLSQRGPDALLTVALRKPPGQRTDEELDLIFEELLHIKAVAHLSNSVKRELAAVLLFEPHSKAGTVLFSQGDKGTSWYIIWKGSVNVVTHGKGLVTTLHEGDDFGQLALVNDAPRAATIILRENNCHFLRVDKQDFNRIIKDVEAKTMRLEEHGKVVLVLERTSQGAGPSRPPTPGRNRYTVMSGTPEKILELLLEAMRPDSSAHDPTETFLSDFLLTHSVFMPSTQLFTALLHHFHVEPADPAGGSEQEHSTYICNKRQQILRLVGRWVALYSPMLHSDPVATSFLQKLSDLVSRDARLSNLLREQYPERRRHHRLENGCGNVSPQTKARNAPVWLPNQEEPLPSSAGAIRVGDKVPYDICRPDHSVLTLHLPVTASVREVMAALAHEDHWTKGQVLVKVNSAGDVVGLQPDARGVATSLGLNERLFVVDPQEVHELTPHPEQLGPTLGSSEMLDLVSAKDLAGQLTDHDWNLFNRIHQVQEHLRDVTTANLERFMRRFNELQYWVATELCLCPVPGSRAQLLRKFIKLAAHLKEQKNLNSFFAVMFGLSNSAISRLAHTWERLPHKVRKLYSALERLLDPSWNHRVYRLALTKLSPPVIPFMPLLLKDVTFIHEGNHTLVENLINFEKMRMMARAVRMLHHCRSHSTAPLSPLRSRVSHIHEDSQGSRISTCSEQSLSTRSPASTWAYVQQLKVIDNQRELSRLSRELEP

Target: exchange protein directly activated by cAMP 1 (Epac1) (mouse (endogenous in mouse ventricle and HL-1 myocytes)) (UniProt Q8VCC8)
Assay: co-IP; reverse co-immunoprecipitation: mouse ventricle lysates precipitated with anti-Epac1 antibody, reblotted with anti-CD44 antibody; mice treated with 48-h isoproterenol

B1: CD44 (receptor, UniProt P15379 23-778)
chain: QIDLNVTCRYAGVFHVEKNGRYSISRTEAADLCQAFNSTLPTMDQMKLALSKGFETCRYGFIEGNVVIPRIHPNAICAANHTGVYILVTSNTSHYDTYCFNASAPPEEDCTSVTDLPNSFDGPVTITIVNRDGTRYSKKGEYRTHQEDIDASNIIDDDVSSGSTIEKSTPEGYILHTYLPTEQPTGDQDDSFFIRSTLATIASTVHSKSHAAAQKQNNWIWSWFGNSQSTTQTQEPTTSATTALMTTPETPPKRQEAQNWFSWLFQPSESKSHLHTTTKMPGTESNTNPTGWEPNEENEDETDTYPSFSGSGIDDDEDFISSTIATTPRVSARTEDNQDWTQWKPNHSNPEVLLQTTTRMADIDRISTSAHGENWTPEPQPPFNNHEYQDEEETPHATSTTPNSTAEAAATQQETWFQNGWQGKNPPTPSEDSHVTEGTTASAHNNHPSQRITTQSQEDVSWTDFFDPISHPMGQGHQTESKDTDSSHSTTLQPTAAPNTHLVEDLNRTGPLSVTTPQSHSQNFSTLHGEPEEDENYPTTSILPSSTKSSAKDARRGGSLPTDTTTSVEGYTFQYPDTMENGTLFPVTPAKTEVFGETEVTLATDSNVNVDGSLPGDRDSSKDSRGSSRTVTHGSELAGHSSANQDSGVTTTSGPMRRPQIPEWLIILASLLALALILAVCIAVNSRRRCGQKKKLVINGGNGTVEDRKPSELNGEASKSQEMVHLVNKEPSETPDQCMTADETRNLQSVDMKIGV
binding: binds
